Values of other authors as cited in patent US20200352851A1, “METHOD OF TREATING AN EYE DISORDER BY INHIBITING OR DISRUPTING BACTERIAL BIOFILM FORMATION” (priority 2017, published 2020).
Where two headings read alike, the source gives them in different places. Some results were stated once for a whole list of compounds, not compound by compound. For at least one compound, name, drawing or mass did not settle the structure.

System: S. aureus

| Compound | reduction of binding and subsequent internalization of S. aureus (cytochalasin D 0.5 μg/ml) | reduction of binding and subsequent internalization of S. aureus (genistein 250 μg/ml) |
| --- | --- | --- |
| C=C1[C@@H](C)[C@H]2[C@H](Cc3ccccc3)NC(=O)[C@]23[C@H](OC(C)=O)/C=C/[C@@](C)(O)C(=O)[C@@H](C)C/C=C/[C@H]3[C@@H]1O [cytochalasin D] | > 99.9% | – |
| O=c1c(-c2ccc(O)cc2)coc2cc(O)cc(O)c12 [genistein] | – | > 99.9% |
